Reference: patent US20170260543A1, “COMPOSITIONS AND METHODS FOR FLUORESCENT GENETIC BAR-CODING IN MAMMALIAN CELLS FOR ENHANCED MULTIPLEXING CAPABILITIES IN FLOW CYTOMETRY” (SAN DIEGO STATE UNIVERSITY (SDSU), dba SAN DIEGO STATE …, priority 2013, published 2017)
At least one structure is not confirmed: it was looked up by name or label, or the drawing left a doubt.

System: HIV-1 protease variants
Experiment: Cell-based HIV-1 protease assay in genetically barcoded SupT1 cells, eGFP as biosensor for protease inhibition, flow cytometry
Conditions: mixed panel of four SupT1 populations, each expressing a distinct HIV-1 protease variant in an inducible manner (Dox); eGFP is expressed if the protease is inhibited

C[C@H]1c2cccc(O)c2C(=O)C2=C(O)[C@]3(O)C(=O)C(C(N)=O)=C(O)[C@@H](N(C)C)[C@@H]3[C@@H](O)[C@@H]21 [doxycycline]
eGFP expression (green fluorescence) of the barcoded populations: neither of the populations is fluorescent
